Patent US20130149236A1 (MacroGenics, published 2013)
No constants are given. Whether binding was seen depends on the method and setting. Some entries that bind do so weakly or less than the wild type.

T1: human B7-H3 (form not stated) (human) (UniProt Q5ZPR3)
T1 sequence (looked up): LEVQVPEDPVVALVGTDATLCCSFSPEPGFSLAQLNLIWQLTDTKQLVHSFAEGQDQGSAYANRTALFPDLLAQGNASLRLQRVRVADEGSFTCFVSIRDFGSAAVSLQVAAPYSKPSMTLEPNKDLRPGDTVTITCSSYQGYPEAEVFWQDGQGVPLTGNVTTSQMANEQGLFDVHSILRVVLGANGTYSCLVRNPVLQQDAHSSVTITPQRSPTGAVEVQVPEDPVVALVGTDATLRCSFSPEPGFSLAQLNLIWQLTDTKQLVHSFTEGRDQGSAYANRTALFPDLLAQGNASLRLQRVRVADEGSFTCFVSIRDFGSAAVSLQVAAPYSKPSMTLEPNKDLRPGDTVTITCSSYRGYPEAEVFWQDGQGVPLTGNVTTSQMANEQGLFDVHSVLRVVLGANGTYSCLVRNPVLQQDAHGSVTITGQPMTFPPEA


Experiments:
[1] = molecular target: T1, human B7-H3 (form not stated) (human); experiment: relative binding to human B7-H3 (FIG. 13)
[2] = molecular target: T1, human B7-H3 (form not stated) (human); experiment: summary of activities
[3] = molecular target: T1, human B7-H3 (form not stated) (human); experiment: summary of panel
[4] = molecular target: T1, human B7-H3 (form not stated) (human); experiment: BIACORE analysis grade
[5] = molecular target: T1, human B7-H3 (form not stated) (human); experiment: Binding BIACORE grade
[6] = molecular target: T1, human B7-H3 (form not stated) (human); experiment: BIACORE grade
[7] = molecular target: T1, human B7-H3 (form not stated) (human); experiment: relative binding to human B7-H3 (FIG. 12)

Binder	binding [1]	binding [3]	binding [6]	binding [7]	binding [2]	binding [4]	binding [5]
antibody containing hBRCA84D-5VL and hBRCA84D-2VH (antibody, V domains shown) VH: EVQLVESGGGLVQPGGSLRLSCAASGFTFSSFGMHWVRQAPGKGLEWVAYISSDSSAIYYADTVKGRFTISRDNAKNSLYLQMNSLRDEDTAVYYCGRGRENIYYGSRLDYWGQGTTVTVSS VL: DIQLTQSPSFLSASVGDRVTITCKASQNVDTNVAWYQQKPGQAPKALIYSASYRYSGVPSRFSGSGSGTDFTLTISSLQPEDFATYYCQQYNNYPFTFGQGTKLEIK	binds						
BRCA69D (antibody, IgG1, V domains shown) VH: QVQLQQSGAELARPGASVKLSCKASGYTFTSYWMQWVKQRPGQGLEWIGTIYPGDGDTRYTQKFKGKATLTADKSSSTAYMQLSSLASEDSAVYYCARRGIPRLWYFDVWGAGTTVTVSS VL: DIQMTQTTSSLSASLGDRVTISCRASQDISNYLNWYQQKPDGTVKLLIYYTSRLHSGVPSRFSGSGSGTDYSLTIDNLEQEDIATYFCQQGNTLPPTFGGGTKLEIK		binds	binds		binds	binds	binds
BRCA84D (antibody, IgG1, V domains shown, murine mAb, IgG1/k; fluorescein-labeled in the FACS MFI columns) VH: DVQLVESGGGLVQPGGSRKLSCAASGFTFSSFGMHWVRQAPEKGLEWVAYISSDSSAIYYADTVKGRFTISRDNPKNTLFLQMTSLRSEDTAMYYCGRGRENIYYGSRLDYWGQGTTLTVSS VL: DIAMTQSQKFMSTSVGDRVSVTCKASQNVDTNVAWYQQKPGQSPKALIYSASYRYSGVPDRFTGSGSGTDFTLTINNVQSEDLAEYFCQQYNNYPFTFGSGTKLEIK		binds	binds		binds	binds	binds

Second part, led by results:

binding [1]	binding [3]	binding [6]	binding [7]	Binder	binding [2]	binding [4]	binding [5]
	binds	binds		PRCA157 (antibody, IgG1, V domains shown, murine mAb, IgG1/k) VH: EVQQVESGGDLVKPGGSLKLSCAASGFTFSSYGMSWVRQTPDKRLEWVATINSGGSNTYYPDSLKGRFTISRDNAKNTLYLQMRSLKSEDTAMYYCARHDGGAMDYWGQGTSVTVSS VL: DIQMTQSPASLSVSVGETVTITCRASESIYSYLAWYQQKQGKSPQLLVYNTKTLPEGVPSRFSGSGSGTQFSLKINSLQPEDFGRYYCQHHYGTPPWTFGGGTNLEIK			
			binds	antibody containing hBRCA84D-5VL and chimeric BRCA84D-HC (antibody, V domains shown) VH: DVQLVESGGGLVQPGGSRKLSCAASGFTFSSFGMHWVRQAPEKGLEWVAYISSDSSAIYYADTVKGRFTISRDNPKNTLFLQMTSLRSEDTAMYYCGRGRENIYYGSRLDYWGQGTTLTVSS VL: DIQLTQSPSFLSASVGDRVTITCKASQNVDTNVAWYQQKPGQAPKALIYSASYRYSGVPSRFSGSGSGTDFTLTISSLQPEDFATYYCQQYNNYPFTFGQGTKLEIK			
